In the supplement of paper PMC4604168 (melanoma cell lines):
The list shows a part of the results. Many values rest on one well or one pass, so single values are uncertain.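 The apoptosis fraction was the count of cleaved-PARP antibody-stained nuclei relative to all DNA-stained nuclei, imaged in 1,536-well plates. Screening doses were set so most cells survived, and baseline and induced cleaved-PARP levels vary greatly across cell lines.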

How the values were obtained:
Assay in all cases: cleaved PARP positive nuclei fraction relative to DMSO control; melanoma cells; higher = more apoptosis
Conditions in all cases: library dose: low library concentration; 72 h
MZ2-MEL = tested on: MZ2-MEL
MeWo = tested on: MeWo
RPMI7951 = tested on: RPMI7951
RVH-421 = tested on: RVH-421
SkMel28 = tested on: SkMel28
SkMel2 = tested on: SkMel2
SkMel30 = tested on: SkMel30
SkMel5 = tested on: SkMel5
UACC257 = tested on: UACC257
UACC62 = tested on: UACC62
WM115 = tested on: WM115
WM1716 = tested on: WM1716
WM1745 = tested on: WM1745
WM3526 = tested on: WM3526
WM3619 = tested on: WM3619
WM451Lu = tested on: WM451Lu

Compound	cleaved PARP positive nuclei fraction (MZ2-MEL) [%]	cleaved PARP positive nuclei fraction (MeWo) [%]	cleaved PARP positive nuclei fraction (RPMI7951) [%]	cleaved PARP positive nuclei fraction (RVH-421) [%]	cleaved PARP positive nuclei fraction (SkMel28) [%]	cleaved PARP positive nuclei fraction (SkMel2) [%]	cleaved PARP positive nuclei fraction (SkMel30) [%]	cleaved PARP positive nuclei fraction (SkMel5) [%]	cleaved PARP positive nuclei fraction (UACC257) [%]	cleaved PARP positive nuclei fraction (UACC62) [%]	cleaved PARP positive nuclei fraction (WM115) [%]	cleaved PARP positive nuclei fraction (WM1716) [%]	cleaved PARP positive nuclei fraction (WM1745) [%]	cleaved PARP positive nuclei fraction (WM3526) [%]	cleaved PARP positive nuclei fraction (WM3619) [%]	cleaved PARP positive nuclei fraction (WM451Lu) [%]
N.N.[Cl][Pt][Cl] [cisplatin] + O=C(O)C(=O)Nc1sc2c(c1C(=O)O)CCNC2 [TCS401] (first compound 1.6 µM, partner dose 1.66667 µM)	402	113	34.7	204	161	210	211	82.1	89.3	307	111	107	282	86.5	107	42.6
Cn1c(=O)n(-c2ccc(C(C)(C)C#N)cc2)c2c3cc(-c4cnc5ccccc5c4)ccc3ncc21 + Cc1cc(SCc2sc(-c3ccc(C(F)(F)F)c(F)c3)nc2C)ccc1OCC(=O)O [GW0742] (first compound 0.004 µM, partner dose 2 µM)	181	104	238	42.6	150	57.5	37.8	72.3	186	114	110	97.4	83.8	69	85	339
C[As](C)SC[C@H](NC(=O)CC[C@H](N)C(=O)O)C(=O)NCC(=O)O [Darinaparsin] + CN(C)S(=O)(=O)c1ccc2c(c1)/C(=C/c1cc3c([nH]1)CCCC3)C(=O)N2 [SU6656] (first compound 0.4 µM, partner dose 0.4 µM)	55.2	111	73.5	103	86.8	36.2	70	46.4	90.4	30.4	65.8	44.6	87.2	64	97.4	49.8
CNC(=O)c1cc(Oc2ccc(NC(=O)Nc3ccc(Cl)c(C(F)(F)F)c3)cc2)ccn1 [sorafenib] + C/C(O)=C(\C#N)C(=O)Nc1cc(Br)ccc1Br [LFM-A13] (first compound 0.4 µM, partner dose 2 µM)	143	152	158	341	109	69	192	75.6	171	135	115	171	98.3	374	92	667
